Binding data for one molecule are collected here from PMC4706845.

These are yes or no findings as the source states them, for the method shown. Binding calls can cover weak binding; strength is not graded here.

The experiment addresses APP intracellular domain (AICD), full length AICD (human (cDNA from HeLa cells)). In words: proteo-liposome recruitment; cytoplasmic tails covalently coupled to liposomes, incubated with pig brain cytosol; proteo-liposomes separated on a sucrose cushion and pelleted at 4 °C; SDS-PAGE and western blot for Vac14 and PIKfyve; cysteine liposomes as negative control; only the target purified.

B1: Vac14 from pig brain cytosol (protein, UniProt F1S3E8 1-783)
chain: MNPEKDFAPLTPNIVRALNDKLYEKRKVAALEIEKLVREFVAQNNTVQIKHVIQTLSQEFALSQHPHSRKGGLIGLAACSIALGKDSGLYLKELIEPVLTCFNDADSRLRYYACEALYNIVKVARGAVLPHFNVLFDGLSKLAADPDPNVKSGSELLDRLLKDIVTESNKFDLVGFIPLLRERIYSNNQYARQFIISWILVLESVPDINLLDYLPEILDGLFQILGDNGKEIRKMCEVVLGEFLKEIKKNPSSVKFAEMANILVIHCQTTDDLIQLTAMCWMREFIQLAGRVMLPYSSGILTAVLPCLAYDDRKKSIKEVANVCNQSLMKLVTPEDDEPDEPKPVVQKQAEAKPEDSSAKQEGTASGGPDGSCDSSFGGSIGVFSPASTERAPVTLHLDGIVQVLNCHLSDMAIGMMTRIAVLKWLYHLYIKTPRKMFRHTDSLFPILLQTLSDESDEVILKDLEVLAEIASSPAGQTDDAGPPDGPDLRVGHSELQVPTPGRASLLSTPGAKGLECSPSTPTMNSYFYKFMINLLKRFSSERKLLEVRGAFIIRQLCLLLNAENIFHSMADILLREEDLKFASTMVHTLNTILLTSTELFQLRNQLKDLRTPESRNLFCCLYRSWCHNPVTTVSLCFLTQNYRHAYDLIQKFGDLEVTVDFLTEVDKLVQLIECPIFTYLRLQLLDVKNNPYLIKALYGLLMLLPQSSAFQLLSHRLQCVPNPELLQTEDGLKAAPRSQNADSLSIDYAELLQHFERVQKKHLEVRHQRSGRGDHLDRRVVL
Regarding B1, the binding entry is given as “binds”.
